{"source": "the supplement of paper PMC4635364", "key": {"ReNCell VM [1]": {"system": "ReNCell VM", "assay": "neuronal differentiation score (DCX+ cell fraction vs untreated, manual image score) (score (-3 to 3)); higher = more neuronal differentiation", "conditions": "2 uM, 2 weeks"}, "ReNCell VM [2]": {"system": "ReNCell VM", "assay": "dopaminergic neuron differentiation score (TH+ cell fraction vs untreated, manual image score) (score (0 to 3)); higher = more TH+ dopaminergic neuron differentiation", "conditions": "2 uM, 4 weeks, BDNF 10 ng/ml + GDNF 10 ng/ml"}}, "note": "Counter-ions that a name gives are not always drawn. The list shows a part of the results. Single values are uncertain here, since repeats match poorly.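 Cells: ReNCell VM human fetal ventral-midbrain neural progenitors, differentiated mitogen-free. Blinded raters compared doublecortin-stained (early neurons) or tyrosine hydroxylase-stained (dopaminergic neurons) images with untreated wells, where 0 means no change. After repeats and both raters were averaged, compounds scoring 2 or above became hits for retesting.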", "data": [{"smiles": "CCN(CC)CCNc1ccc(CO)c2sc3ccccc3c(=O)c12", "note": "[Hycanthone]", "values": [{"measurement": "neuronal differentiation score", "setting": "ReNCell VM [1]; library: Prestwick", "value": "inactive: 0"}, {"measurement": "dopaminergic neuron differentiation score", "setting": "ReNCell VM [2]; library: Prestwick", "value": "inactive: 0"}]}, {"smiles": "CC(NC(=O)c1ccccc1/N=C/c1c(O)ccc2ccccc12)c1ccccc1", "note": "(configuration not stated) [Sirtinol]", "values": [{"measurement": "neuronal differentiation score", "setting": "ReNCell VM [1]; library: Tocriscreen", "value": "inactive: 0"}, {"measurement": "dopaminergic neuron differentiation score", "setting": "ReNCell VM [2]; library: Tocriscreen", "value": "inactive: 0"}]}, {"smiles": "O=C(O)C1CCCNC1", "note": "(configuration not stated)", "values": [{"measurement": "neuronal differentiation score", "setting": "ReNCell VM [1]; library: Spectrum", "value": "inactive: 0"}, {"measurement": "dopaminergic neuron differentiation score", "setting": "ReNCell VM [2]; library: Spectrum", "value": "inactive: 0"}]}, {"smiles": "N[C@@H](CC(=O)Nc1ccc(Oc2cc(F)c(F)cc2Br)cc1)C(=O)O", "values": [{"measurement": "neuronal differentiation score", "setting": "ReNCell VM [1]; library: Tocriscreen", "value": "inactive: 0"}, {"measurement": "dopaminergic neuron differentiation score", "setting": "ReNCell VM [2]; library: Tocriscreen", "value": "inactive: 0"}]}, {"smiles": "C[C@H]1O[C@@H](O[C@H]2[C@@H](O)C[C@H](O[C@H]3[C@@H](O)C[C@H](O[C@H]4CC[C@@]5(C)[C@H](CC[C@@H]6[C@@H]5CC[C@]5(C)[C@@H](C7=CC(=O)OC7)CC[C@]65O)C4)O[C@@H]3C)O[C@@H]2C)C[C@H](O)[C@@H]1O", "values": [{"measurement": "neuronal differentiation score", "setting": "ReNCell VM [1]; library: Spectrum", "value": "inactive: 0"}, {"measurement": "dopaminergic neuron differentiation score", "setting": "ReNCell VM [2]; library: Spectrum", "value": "inactive: 0"}]}, {"smiles": "CN1C(=O)OC(C)(C)C1=O", "values": [{"measurement": "neuronal differentiation score", "setting": "ReNCell VM [1]; library: Spectrum", "value": "inactive: 0"}, {"measurement": "dopaminergic neuron differentiation score", "setting": "ReNCell VM [2]; library: Spectrum", "value": "inactive: 0"}]}, {"smiles": "CC1(C)C(=O)C=CC2(C)C1C=CC1(C)C2CCC2(C)C(c3ccoc3)OC(=O)C3OC312", "note": "(configuration not stated)", "values": [{"measurement": "neuronal differentiation score", "setting": "ReNCell VM [1]; library: Spectrum", "value": "inactive: 0"}, {"measurement": "dopaminergic neuron differentiation score", "setting": "ReNCell VM [2]; library: Spectrum", "value": "inactive: 0"}]}, {"smiles": "CC1=CC(=O)[C@H]2C(C)(C)CCC[C@]2(C)[C@@]1(O)CCc1ccoc1", "values": [{"measurement": "neuronal differentiation score", "setting": "ReNCell VM [1]; library: Spectrum", "value": "inactive: 0"}, {"measurement": "dopaminergic neuron differentiation score", "setting": "ReNCell VM [2]; library: Spectrum", "value": "inactive: 0"}]}, {"smiles": "CC(CCc1ccc(O)cc1)NCC(O)c1ccc(O)cc1", "note": "(configuration not stated)", "values": [{"measurement": "neuronal differentiation score", "setting": "ReNCell VM [1]; library: Spectrum", "value": "inactive: 0"}, {"measurement": "dopaminergic neuron differentiation score", "setting": "ReNCell VM [2]; library: Spectrum", "value": "inactive: 0"}]}, {"smiles": "CC(NCCc1ccc(O)cc1)C(O)c1ccc(O)cc1", "note": "(configuration not stated)", "values": [{"measurement": "neuronal differentiation score", "setting": "ReNCell VM [1]; library: Spectrum", "value": "inactive: 0"}, {"measurement": "dopaminergic neuron differentiation score", "setting": "ReNCell VM [2]; library: Spectrum", "value": "inactive: 0"}]}, {"smiles": "NOCC(=O)O", "note": "[O-(Carboxymethyl)hydroxylamine hemihydrochloride]", "values": [{"measurement": "neuronal differentiation score", "setting": "ReNCell VM [1]; library: LOPAC", "value": "inactive: 0"}, {"measurement": "dopaminergic neuron differentiation score", "setting": "ReNCell VM [2]; library: LOPAC", "value": "inactive: 0"}]}, {"smiles": "COc1c(N2CCNC(C)C2)c(F)cc2c(=O)c(C(=O)O)cn(C3CC3)c12", "note": "(configuration not stated) [Gatifloxacin]", "values": [{"measurement": "neuronal differentiation score", "setting": "ReNCell VM [1]; library: Prestwick", "value": "inactive: 0"}, {"measurement": "dopaminergic neuron differentiation score", "setting": "ReNCell VM [2]; library: Prestwick", "value": "inactive: 0"}]}, {"smiles": "COc1ccc(-c2cc(=O)c3c(OC(C)=O)cc(OC(C)=O)cc3o2)cc1", "values": [{"measurement": "neuronal differentiation score", "setting": "ReNCell VM [1]; library: Spectrum", "value": "inactive: 0"}, {"measurement": "dopaminergic neuron differentiation score", "setting": "ReNCell VM [2]; library: Spectrum", "value": "inactive: 0"}]}, {"smiles": "C[C@]12C=CC(=O)C=C1CC[C@@H]1[C@@H]2C(=O)C[C@@]2(C)[C@H]1CC[C@]2(O)C(=O)CO", "note": "[Prednisone]", "values": [{"measurement": "neuronal differentiation score", "setting": "ReNCell VM [1]; library: Prestwick", "value": "inactive: 0"}, {"measurement": "dopaminergic neuron differentiation score", "setting": "ReNCell VM [2]; library: Prestwick", "value": "inactive: 0"}]}, {"smiles": "O=C(CCCl)NCCc1ccccc1", "values": [{"measurement": "neuronal differentiation score", "setting": "ReNCell VM [1]; library: Spectrum", "value": "inactive: 0"}, {"measurement": "dopaminergic neuron differentiation score", "setting": "ReNCell VM [2]; library: Spectrum", "value": "inactive: 0"}]}, {"smiles": "Cc1ccc(/C=N/NC(=O)c2ccccc2Oc2ccccc2)o1", "values": [{"measurement": "neuronal differentiation score", "setting": "ReNCell VM [1]; library: Tocriscreen", "value": "inactive: 0"}, {"measurement": "dopaminergic neuron differentiation score", "setting": "ReNCell VM [2]; library: Tocriscreen", "value": "inactive: 0"}]}, {"smiles": "COC(=O)C[C@H]1C(C)(C)[C@@H](OC(C)=O)[C@@H]2CC3=C4CC(=O)O[C@@H](c5ccoc5)[C@]4(C)CC[C@@H]3[C@@]1(C)C2=O", "values": [{"measurement": "neuronal differentiation score", "setting": "ReNCell VM [1]; library: Spectrum", "value": "inactive: 0"}, {"measurement": "dopaminergic neuron differentiation score", "setting": "ReNCell VM [2]; library: Spectrum", "value": "inactive: 0"}]}, {"smiles": "CO[C@H]1/C=C/O[C@@]2(C)Oc3c(C)c(O)c4c(O)c(c(/C=N/N5CCN(C)CC5)c(O)c4c3C2=O)NC(=O)/C(C)=C\\C=C\\[C@H](C)[C@H](O)[C@@H](C)[C@@H](O)[C@@H](C)[C@H](OC(C)=O)[C@@H]1C", "note": "[Rifampicin]", "values": [{"measurement": "neuronal differentiation score", "setting": "ReNCell VM [1]; library: Prestwick", "value": "inactive: 0"}, {"measurement": "dopaminergic neuron differentiation score", "setting": "ReNCell VM [2]; library: Prestwick", "value": "inactive: 1"}]}, {"smiles": "OC(CCN1CCCCC1)(c1ccccc1)C1CCCCC1", "note": "(configuration not stated) [Trihexyphenidyl-D,L Hydrochloride]", "values": [{"measurement": "neuronal differentiation score", "setting": "ReNCell VM [1]; library: Prestwick", "value": "inactive: 0"}, {"measurement": "dopaminergic neuron differentiation score", "setting": "ReNCell VM [2]; library: Prestwick", "value": "inactive: 0"}]}, {"smiles": "CC1(C)CCC(NC(=O)[C@@H](N)CCC(=O)O)CC1", "values": [{"measurement": "neuronal differentiation score", "setting": "ReNCell VM [1]; library: LOPAC", "value": "inactive: 0"}, {"measurement": "dopaminergic neuron differentiation score", "setting": "ReNCell VM [2]; library: LOPAC", "value": "inactive: 0"}]}, {"smiles": "C[N+](C)(C)CC=O", "note": "[Betaine aldehyde chloride]", "values": [{"measurement": "neuronal differentiation score", "setting": "ReNCell VM [1]; library: LOPAC", "value": "inactive: 0"}, {"measurement": "dopaminergic neuron differentiation score", "setting": "ReNCell VM [2]; library: LOPAC", "value": "inactive: 0"}]}, {"smiles": "CC12CCC(CC1=O)C2(C)C", "note": "(configuration not stated)", "values": [{"measurement": "neuronal differentiation score", "setting": "ReNCell VM [1]; library: Spectrum", "value": "inactive: 0"}, {"measurement": "dopaminergic neuron differentiation score", "setting": "ReNCell VM [2]; library: Spectrum", "value": "inactive: 0"}]}, {"smiles": "COc1c2c(cc3occ(-c4ccc5c(c4)OCO5)c(=O)c13)OC(C)(C)C=C2", "values": [{"measurement": "neuronal differentiation score", "setting": "ReNCell VM [1]; library: Spectrum", "value": "inactive: 0"}, {"measurement": "dopaminergic neuron differentiation score", "setting": "ReNCell VM [2]; library: Spectrum", "value": "inactive: 0"}]}, {"smiles": "C=CCn1c(=O)n([C@@H]2O[C@H](CO)[C@@H](O)[C@H]2O)c2nc(N)[nH]c(=O)c21", "values": [{"measurement": "neuronal differentiation score", "setting": "ReNCell VM [1]; library: Tocriscreen", "value": "inactive: 0"}, {"measurement": "dopaminergic neuron differentiation score", "setting": "ReNCell VM [2]; library: Tocriscreen", "value": "inactive: 0"}]}, {"smiles": "CN1CC[C@]23c4ccccc4N[C@H]1[C@]21CCN(C)[C@H]3Nc2ccccc21", "note": "[Calycanthine]", "values": [{"measurement": "neuronal differentiation score", "setting": "ReNCell VM [1]; library: Phytochemical", "value": "inactive: 1"}, {"measurement": "dopaminergic neuron differentiation score", "setting": "ReNCell VM [2]; library: Phytochemical", "value": "inactive: 0"}]}, {"smiles": "CCOc1nc2cccc(C(=O)OC(C)OC(=O)OC3CCCCC3)c2n1Cc1ccc(-c2ccccc2-c2nn[nH]n2)cc1", "note": "(configuration not stated)", "values": [{"measurement": "neuronal differentiation score", "setting": "ReNCell VM [1]; library: Spectrum", "value": "inactive: 0"}, {"measurement": "dopaminergic neuron differentiation score", "setting": "ReNCell VM [2]; library: Spectrum", "value": "inactive: 0"}]}, {"smiles": "CCCCC1C(=O)N(c2ccccc2)N(c2ccc(O)cc2)C1=O", "note": "(configuration not stated) [Oxyphenbutazone]", "values": [{"measurement": "neuronal differentiation score", "setting": "ReNCell VM [1]; library: Prestwick", "value": "inactive: 0"}, {"measurement": "dopaminergic neuron differentiation score", "setting": "ReNCell VM [2]; library: Prestwick", "value": "inactive: 1"}]}, {"smiles": "CC(=O)N[C@@H]([C@@H](O)[C@H](O)[C@H](O)CO)[C@@H](O)CC(=O)C(=O)O", "values": [{"measurement": "neuronal differentiation score", "setting": "ReNCell VM [1]; library: Spectrum", "value": "inactive: 0"}, {"measurement": "dopaminergic neuron differentiation score", "setting": "ReNCell VM [2]; library: Spectrum", "value": "inactive: 0"}]}, {"smiles": "CCCCCCCCCCCCCCCCCCCCCCO", "values": [{"measurement": "neuronal differentiation score", "setting": "ReNCell VM [1]; library: Spectrum", "value": "inactive: 0"}, {"measurement": "dopaminergic neuron differentiation score", "setting": "ReNCell VM [2]; library: Spectrum", "value": "inactive: 0"}]}, {"smiles": "Clc1ccccc1C(c1ccccc1)(c1ccccc1)n1ccnc1", "values": [{"measurement": "neuronal differentiation score", "setting": "ReNCell VM [1]; library: Spectrum", "value": "inactive: -1"}, {"measurement": "dopaminergic neuron differentiation score", "setting": "ReNCell VM [2]; library: Spectrum", "value": "inactive: 0"}]}, {"smiles": "Cc1cccc(CN2CCN(C(c3ccccc3)c3ccc(Cl)cc3)CC2)c1", "note": "(configuration not stated)", "values": [{"measurement": "neuronal differentiation score", "setting": "ReNCell VM [1]; library: Spectrum", "value": "inactive: 0"}, {"measurement": "dopaminergic neuron differentiation score", "setting": "ReNCell VM [2]; library: Spectrum", "value": "inactive: 0"}]}]}
